According to publication PMC4682977:
These are yes or no findings as the source states them, for the method shown. For some assays here: Binding seen in cells or lysates may run through a third protein. Some results given as binding are weak or reduced against the parent protein; the word gives no strength. For some assays here: Tags and fused reporters may be left off the sequences shown.

Amino acid sequences for entries named in this document (tags omitted).
UniProt P63010: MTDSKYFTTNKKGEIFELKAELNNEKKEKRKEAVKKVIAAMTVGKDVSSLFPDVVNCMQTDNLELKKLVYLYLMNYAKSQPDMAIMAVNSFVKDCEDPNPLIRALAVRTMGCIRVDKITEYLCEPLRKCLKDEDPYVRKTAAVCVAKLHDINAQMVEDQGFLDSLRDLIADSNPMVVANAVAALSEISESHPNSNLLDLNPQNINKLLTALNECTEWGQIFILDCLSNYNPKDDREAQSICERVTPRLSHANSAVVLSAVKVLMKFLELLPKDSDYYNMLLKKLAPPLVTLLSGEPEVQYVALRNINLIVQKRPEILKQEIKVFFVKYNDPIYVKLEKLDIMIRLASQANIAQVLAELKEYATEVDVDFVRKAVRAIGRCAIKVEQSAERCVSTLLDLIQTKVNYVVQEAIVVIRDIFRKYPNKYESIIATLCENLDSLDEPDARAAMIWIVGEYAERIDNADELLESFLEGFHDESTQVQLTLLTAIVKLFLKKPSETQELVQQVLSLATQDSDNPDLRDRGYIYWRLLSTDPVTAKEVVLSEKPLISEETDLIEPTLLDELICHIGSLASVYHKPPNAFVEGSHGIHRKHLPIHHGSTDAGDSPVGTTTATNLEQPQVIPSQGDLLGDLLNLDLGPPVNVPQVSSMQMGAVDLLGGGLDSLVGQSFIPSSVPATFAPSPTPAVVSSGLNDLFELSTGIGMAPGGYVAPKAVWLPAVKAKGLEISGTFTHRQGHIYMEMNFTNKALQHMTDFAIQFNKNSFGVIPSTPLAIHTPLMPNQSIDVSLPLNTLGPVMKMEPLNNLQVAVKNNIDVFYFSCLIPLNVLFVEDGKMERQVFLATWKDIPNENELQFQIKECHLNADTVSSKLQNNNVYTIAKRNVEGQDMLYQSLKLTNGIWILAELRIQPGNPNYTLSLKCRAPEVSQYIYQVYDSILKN

What was measured:
[1] = target: T1, C-terminally Flag-tagged TβRI (TGF-β type I receptor) (UniProt P36897); assay: co-IP; 293T cells coexpressing TβRII and Flag-tagged TβRI with the partner, with or without increasing amounts of p52ShcA-HA or Smad3-myc plasmid, TGF-β-treated; anti-Flag immunoprecipitation of TβRI, immunoblotting of associated proteins; lysis buffer 25 mM Tris-HCl pH 7.5, 150 mM NaCl, 0.7% Triton X-100, 10% glycerol
T1 sequence: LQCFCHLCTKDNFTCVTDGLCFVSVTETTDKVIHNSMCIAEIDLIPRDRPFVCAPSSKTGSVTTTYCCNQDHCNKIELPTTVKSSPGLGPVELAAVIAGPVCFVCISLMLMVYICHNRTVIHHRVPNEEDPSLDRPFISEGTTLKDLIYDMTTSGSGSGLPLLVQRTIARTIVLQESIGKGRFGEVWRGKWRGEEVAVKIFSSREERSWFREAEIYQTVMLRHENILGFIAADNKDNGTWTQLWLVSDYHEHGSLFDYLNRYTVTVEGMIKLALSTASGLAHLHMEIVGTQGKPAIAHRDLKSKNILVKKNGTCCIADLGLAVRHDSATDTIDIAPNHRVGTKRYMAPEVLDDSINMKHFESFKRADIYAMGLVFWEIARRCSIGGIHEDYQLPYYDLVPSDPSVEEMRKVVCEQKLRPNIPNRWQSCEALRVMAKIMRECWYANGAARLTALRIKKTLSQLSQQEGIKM

[2] = target: T1, C-terminally Flag-tagged TβRI (TGF-β type I receptor); assay: as above; remark: listed apart in the source
[3] = target: T1, C-terminally Flag-tagged TβRI (TGF-β type I receptor); assay: pull-down; GST-Smad3 immobilised on glutathione-Sepharose, incubated 20 min at 4°C with immunopurified Flag-TβRI from TGF-β-treated 293T cells; after three washes the beads were incubated with His-tagged ShcA for 30 min at 4°C; bound and unbound proteins immunoblotted; one sample with TβRI dephosphorylated by lambda phosphatase; both purified
[4] = target: T2, endogenous TβRI of NMuMG cells (mouse (endogenous in NMuMG)) (UniProt Q64729); assay: co-IP; NMuMG cells, proteins at endogenous levels, treated or not with TGF-β, transfected with ShcA siRNA or p52ShcA expression plasmid; endogenous TβRI immunoprecipitated with anti-TβRI, associated β2-adaptin or caveolin 1 immunoblotted
T2 sequence: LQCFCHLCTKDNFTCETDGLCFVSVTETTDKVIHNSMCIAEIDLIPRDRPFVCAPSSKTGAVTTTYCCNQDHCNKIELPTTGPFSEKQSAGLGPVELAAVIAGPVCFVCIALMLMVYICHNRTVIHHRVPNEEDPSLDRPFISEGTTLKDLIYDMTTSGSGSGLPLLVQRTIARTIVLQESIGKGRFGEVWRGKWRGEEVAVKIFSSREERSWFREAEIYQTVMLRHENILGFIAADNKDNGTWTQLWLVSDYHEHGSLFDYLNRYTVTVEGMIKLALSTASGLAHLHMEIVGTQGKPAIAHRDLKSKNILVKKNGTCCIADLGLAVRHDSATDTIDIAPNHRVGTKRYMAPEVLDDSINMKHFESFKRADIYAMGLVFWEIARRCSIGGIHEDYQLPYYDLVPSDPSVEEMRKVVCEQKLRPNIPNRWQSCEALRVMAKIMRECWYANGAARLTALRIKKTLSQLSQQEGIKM

GFP-tagged β2-adaptin (from UniProt P63010 1-937)
binding [1]: binds

GFP-tagged caveolin-1 (from UniProt Q03135 1-178)
binding [1]: binds

B1: C-terminally haemagglutinin (HA)-tagged p52ShcA (protein, UniProt P29353-2 1-473)
chain: MNKLSGGGGRRTRVEGGQLGGEEWTRHGSFVNKPTRGWLHPNDKVMGPGVSYLVRYMGCVEVLQSMRALDFNTRTQVTREAISLVCEAVPGAKGATRRRKPCSRPLSSILGRSNLKFAGMPITLTVSTSSLNLMAADCKQIIANHHMQSISFASGGDPDTAEYVAYVAKDPVNQRACHILECPEGLAQDVISTIGQAFELRFKQYLRNPPKLVTPHDRMAGFDGSAWDEEEEEPPDHQYYNDFPGKEPPLGGVVDMRLREGAAPGAARPTAPNAQTPSHLGATLPVGQPVGGDPEVRKQMPPPPPCPGRELFDDPSYVNVQNLDKARQAVGGAGPPNPAINGSAPRDLFDMKPFEDALRVPPPPQSVSMAEQLRGEPWFHGKLSRREAEALLQLNGDFLVRESTTTPGQYVLTGLQSGQPKHLLLVDPEGVVRTKDHRFESVSHLISYHMDNHLPIISAGSELCLQQPVERKL
binding [2]: binds

B2: His-tagged p52ShcA (protein, UniProt P29353-2 1-473)
chain: MNKLSGGGGRRTRVEGGQLGGEEWTRHGSFVNKPTRGWLHPNDKVMGPGVSYLVRYMGCVEVLQSMRALDFNTRTQVTREAISLVCEAVPGAKGATRRRKPCSRPLSSILGRSNLKFAGMPITLTVSTSSLNLMAADCKQIIANHHMQSISFASGGDPDTAEYVAYVAKDPVNQRACHILECPEGLAQDVISTIGQAFELRFKQYLRNPPKLVTPHDRMAGFDGSAWDEEEEEPPDHQYYNDFPGKEPPLGGVVDMRLREGAAPGAARPTAPNAQTPSHLGATLPVGQPVGGDPEVRKQMPPPPPCPGRELFDDPSYVNVQNLDKARQAVGGAGPPNPAINGSAPRDLFDMKPFEDALRVPPPPQSVSMAEQLRGEPWFHGKLSRREAEALLQLNGDFLVRESTTTPGQYVLTGLQSGQPKHLLLVDPEGVVRTKDHRFESVSHLISYHMDNHLPIISAGSELCLQQPVERKL
binding [3]: binds

B3: endogenous caveolin 1 of NMuMG cells (protein, UniProt P49817 1-178)
chain: MSGGKYVDSEGHLYTVPIREQGNIYKPNNKAMADEVTEKQVYDAHTKEIDLVNRDPKHLNDDVVKIDFEDVIAEPEGTHSFDGIWKASFTTFTVTKYWFYRLLSTIFGIPMALIWGIYFAILSFLHIWAVVPCIKSFLIEIQCISRVYSIYVHTFCDPLFEAIGKIFSNIRISTQKEI
binding [4]: binds
